Laboratory results: PubChem BioAssay AID1508597 (Cure First, 2020)

Test: 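Genes whose silencing sensitises or protects ovarian cancer cells against rucaparib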 (primary screen)
Cells: human ovarian carcinoma lines grown from tumours: OCI-P5x (papillary serous) and OCI-C5x (clear cell)
Knock-down reagent: siRNA pool against human genes, 1.25 pmol siRNA per well
Duration: 72 h or 96 h, depending on the cell culture
Treatment: rucaparib 20 µM (about IC30) or vehicle, present until read-out
Rucaparib or vehicle: Rucaparib
Cell line: OCI-C5x (clear cell)
Measurement: 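ATP luminescence measured at 72 or 96 h according to the culture, then normalised and expressed as percent viability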
Direction: viability, normalised: higher = more viable cells remaining
Rule for the call: 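a well counts as a hit if its normalised viability is under 80 percent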
Calls: active = viability under 80%; inactive = viability 80% or more
Shown is an unselected part of the about 2,100 reagents, in one setting of the screen. 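Calls flag viability under 80% in either arm, not effects specific to rucaparib; the reference for percent is not stated.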 A reagent listed more than once was tested more than once; the source does not tell the runs apart. The record does not give: the 100% reference.

| gene knocked down | technical replicate | viability, normalised (%) | outcome |
| --- | --- | --- | --- |
| PCDHB13 | 1 | 43.3 | active |
| PCDHB13 | 2 | 51.4 | active |
| PCDHB13 | 3 | 41.1 | active |
| SIRT4 | 1 | 61 | active |
| SIRT4 | 2 | 36.2 | active |
| SIRT4 | 3 | 37 | active |
| DNM3 | 1 | 44.6 | active |
| DNM3 | 2 | 35.1 | active |
| DNM3 | 3 | 44.2 | active |
| SIRT7 | 1 | 38.5 | active |
| SIRT7 | 2 | 39.2 | active |
| SIRT7 | 3 | 33.9 | active |
| RPS3A | 1 | 53.2 | active |
| RPS3A | 2 | 39.9 | active |
| RPS3A | 3 | 49.8 | active |
| TBP | 1 | 55.1 | active |
| TBP | 2 | 59.5 | active |
| TBP | 3 | 53.5 | active |
| MED17 | 1 | 19.3 | active |
| MED17 | 2 | 23 | active |
| MED17 | 3 | 17.6 | active |
| PROX1 | 1 | 38.1 | active |
| PROX1 | 2 | 30.4 | active |
| PROX1 | 3 | 35.8 | active |
| TGFB2 | 1 | 58 | active |
| TGFB2 | 1 | 37 | active |
| TGFB2 | 2 | 37.7 | active |
| TGFB2 | 2 | 65 | active |
| TGFB2 | 3 | 61.2 | active |
| TGFB2 | 3 | 41.7 | active |
| RPA2 | 1 | 55.8 | active |
| RPA2 | 2 | 46.4 | active |
| RPA2 | 3 | 51.1 | active |
| MAP4K4 | 1 | 45 | active |
| MAP4K4 | 2 | 65.1 | active |
| MAP4K4 | 3 | 35.9 | active |

Continued; the last 5 above are carried over.
| gene knocked down | technical replicate | viability, normalised (%) | outcome |
| --- | --- | --- | --- |
| RPA2 | 2 | 46.4 | active |
| RPA2 | 3 | 51.1 | active |
| MAP4K4 | 1 | 45 | active |
| MAP4K4 | 2 | 65.1 | active |
| MAP4K4 | 3 | 35.9 | active |
| CLK1 | 1 | 45 | active |
| CLK1 | 2 | 48.9 | active |
| CLK1 | 3 | 46.3 | active |
| KDM2B | 1 | 48.5 | active |
| KDM2B | 2 | 32.2 | active |
| KDM2B | 3 | 48 | active |
| GFI1B | 1 | 50.1 | active |
| GFI1B | 2 | 37.4 | active |
| GFI1B | 3 | 41.9 | active |
| PSIP1 | 1 | 30.2 | active |
| PSIP1 | 2 | 32.3 | active |
| PSIP1 | 3 | 31.9 | active |
| CLDN2 | 1 | 49.1 | active |
| CLDN2 | 2 | 29.4 | active |
| CLDN2 | 3 | 35.4 | active |
| ING3 | 1 | 44.6 | active |
| ING3 | 2 | 37.9 | active |
| ING3 | 3 | 45.1 | active |
| ROS1 | 1 | 52.2 | active |
| ROS1 | 2 | 68.5 | active |
| ROS1 | 3 | 55.2 | active |
| PCDHB10 | 1 | 59.3 | active |
| PCDHB10 | 2 | 65.8 | active |
| PCDHB10 | 3 | 53.7 | active |
| CHMP1B | 1 | 38.8 | active |
| CHMP1B | 2 | 59.7 | active |
| CHMP1B | 3 | 40.7 | active |
| ASXL1 | 1 | 81.8 | inactive |
| ASXL1 | 2 | 48.5 | active |
| ASXL1 | 3 | 46.1 | active |
| MAP3K8 | 1 | 60.8 | active |
| MAP3K8 | 2 | 57 | active |
| MAP3K8 | 3 | 69.1 | active |
| PIP4K2C | 1 | 52.8 | active |
| PIP4K2C | 2 | 44.2 | active |
| PIP4K2C | 3 | 50.5 | active |
| NEK6 | 1 | 66.4 | active |
| NEK6 | 2 | 59.2 | active |
| NEK6 | 3 | 64.6 | active |
